From PubChem BioAssay AID485298 (National Center for Advancing Translational Sciences (NCATS), 2010)
Hit rate of the full screen: of about 320,000 compounds, about 740 (0.23%) were called active. Inconclusive means that the source gave no clear call. Such entries were picked first, then a sample of the others. Calls follow the shape of the dose curve; as a rule, active = well fitted activation curve with a large enough effect; inconclusive = small, poorly fitted or top-dose-only effect; inactive = no such curve, though single readings can be large or run the other way. Potencies beside an inconclusive call are fits to weak or partial responses and may not hold up.

Test: qHTS Assay for Small Molecule Inhibitors of Mitochondrial Division or Activators of Mitochondrial Fusion; also: nearly all actives have a fitted effect of over 45% in size
Conditions: S. cerevisiae fusion-defective mutant growth rescue, CellTiterGlo 48 h; series mostly up to 46.1 µM
Outline: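 Temperature-sensitive fusion-defective S. cerevisiae (e.g. fzo1-1, mgm1-5) were grown with compound in YPEG medium (3% ethanol, 3% glycerol) for 48 hours at 37C. Growth rescue was measured as viability by CellTiterGlo luminescence after 10 minutes at ambient.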
Potency is read from the fitted curve at half-maximal effect.

Row | SMILES | Potency
1 | O=C(Nc1cc(Cl)ccc1-n1cncn1)c1cc(F)c(F)c(F)c1F | inconclusive: 11.2 µM [activator, single point]
2 | CC(=O)c1sc(NC(=O)C2CCN(c3ncnc4sc(C)c(C)c34)CC2)nc1-c1ccccc1 | inconclusive: 25.1 µM [activator, single point]
3 | CCOC(=O)CSC1=N/C(=C\c2ccc(OC)c(OC)c2)C(=O)N1C | inconclusive: 11.2 µM [activator, partial curve]
4 | O=C(Oc1ccc2c(=O)c(Oc3ccc4ccccc4c3)coc2c1)c1ccco1 | inconclusive: 17.8 µM [activator, single point]
5 | O=C(NCCc1ccc(C(F)(F)F)cc1)C1COc2ccccc2O1 (configuration not stated) | inconclusive: 12.6 µM [activator, partial curve]
6 | O=C(COc1ccccc1)NCC(=O)N/N=C/c1cc(Br)ccc1OCc1ccccc1 | active: 17.8 µM
7 | COc1ccccc1C(=O)NCC(c1cccs1)N1CCc2ccccc21 (configuration not stated) | inconclusive: 20 µM [activator, single point]
8 | CC(C)CCn1c(=O)c2ccccc2n2c(=S)[nH]nc12 | inconclusive: 20 µM [activator, single point]
9 | CCC(C)NC(=O)c1ccc(COc2ccccc2Cl)cc1 (configuration not stated) | inactive
10 | Cc1cc(C)n2nc(SCC(=O)NC3CCCC(C)C3C)nc2n1 (configuration not stated) | inconclusive: 31.6 µM [activator, partial curve]
11 | Nc1nc(SCc2ccccc2)[nH]c(=O)c1-c1ccccc1 | inactive
12 | COc1ccc(/C=C(/C(=O)NCc2ccccc2)c2ccccc2)cc1 | inconclusive: 17.8 µM [activator, single point]
13 | O=c1cc(CN2CCc3ccccc32)c2ccc(O)cc2o1 | inconclusive: 35.5 µM [activator, single point]
14 | CC(=O)NC(Cc1ccccc1F)C(=O)NC1CCN(C(=O)Nc2ccc(C)cc2)CC1 (configuration not stated) | inconclusive: 6.31 µM [activator, single point]
15 | Cc1cccc(CSc2nc3nc(C)cc(C)n3n2)c1 | inconclusive: 11.2 µM [activator, partial curve]
16 | CC(C)Cn1c(CCCNC(=O)c2ccc(F)cc2)nc2ccccc21 | inactive
17 | COC(=O)C1=C(C)NC(=O)C1(Nc1nccs1)C(F)(F)F (configuration not stated) | inactive
18 | C=CCc1c(C)nc(C)nc1N/N=C/c1ccc(N(C)C)cc1 | inactive
19 | Cc1cc(C)c(S(=O)(=O)c2c(C)cccc2C)c(OCC(C)C)n1 | inconclusive: 15.8 µM [activator, single point]
20 | Cc1ccc(N2C(=O)c3cccc(Oc4ccc(Cl)cc4)c3C2=O)c(C)c1 | inconclusive: 12.6 µM [activator, partial curve]
21 | CCn1c(SCc2ccccc2)nc2c(c1=O)SCC2 | inconclusive: 22.4 µM [activator, partial curve]
22 | O=S(=O)(c1cccc(NC(=S)Nc2ccc(Br)cc2Cl)c1)N1CCOCC1 | inactive
23 | CCc1ncc(C(O)c2cccc3ccccc23)n1C (configuration not stated) | inactive
24 | COc1ccc(NCc2nnc(SCc3ccc(Cl)cc3)n2-c2ccccc2)cc1 | inconclusive: 35.5 µM [activator, single point]
25 | Cc1cc(C)n(CC(=O)Nc2cccc(C(F)(F)F)c2)n1 | inactive
26 | CCC(Oc1ccccc1)C(=O)Nc1ccc(-c2nnc(-c3ccco3)o2)cc1 (configuration not stated) | inconclusive: 15.8 µM [activator, single point]

Row | SMILES | Potency
27 | COc1ccccc1OCC(=O)N/N=C/C=C/c1ccc([N+](=O)[O-])o1 | inconclusive: 35.5 µM [activator, single point]
28 | CC(C)(C)c1ccc(C(=O)N2CCCC2c2cccs2)cc1 (configuration not stated) | inconclusive: 11.2 µM [activator, partial curve]
29 | Clc1ccc(C2Nc3cccc4cccc(c34)N2)cc1 | inactive
30 | CC(=O)c1c(C)[nH]c(C(=O)OCc2cccc(Cl)c2)c1C | inconclusive: 35.5 µM [activator, single point]
31 | Cc1cc(-c2nnc(CCC(=O)NC(c3ccccc3)c3ccccc3)o2)no1 | inactive
32 | O=C(Nc1cccc(F)c1)N1CCC(c2ccccc2)CC1 | inactive
33 | CC(=O)Nc1ccc(C(=O)CCl)cc1 | inconclusive: 28.2 µM [activator, single point]
34 | Cn1ccc2cc3c(cc21)CCN3C(=O)Nc1cccnc1 | inconclusive: 20.6 µM [activator, single point]
35 | COc1ccc(C2CC(c3cccs3)=NN2C(=O)CSC2=NCCS2)cc1 (configuration not stated) | inactive
36 | O=C(c1ccc(-c2ccccc2Cl)o1)N1CCN(c2ccccc2O)CC1 | active: 17.8 µM
37 | O=S(=O)(c1ccc2c(c1)OCO2)N1CCN(c2nnnn2-c2ccccc2)CC1 | active: 5.01 µM
38 | O=C(Nc1cc(Cl)cc(Cl)c1)c1cccnc1 | inactive
39 | CCc1nc2ccc(C(=O)N3CCN(c4cccc(C)c4C)CC3)cc2nc1CC | inactive
40 | COC(=O)c1ccccc1NC(=O)c1ccc2nccnc2c1 | inactive
41 | O=[N+]([O-])c1ccc(N2N=C(c3ccco3)CC2c2ccccc2)cc1 (configuration not stated) | inactive
42 | N=C(N)SCc1ncccc1O | inactive
43 | CC1CCN(c2nc3ccccn3c(=O)c2C=O)CC1 | inconclusive: 28.2 µM [activator, single point]
44 | O=C(NCc1ccncc1)c1cc2ccccc2nc1Cl | inconclusive: 5.62 µM [activator, single point]
45 | CCCOC(=O)C1=C(C)NC(=O)NC1c1ccc(Br)s1 (configuration not stated) | inactive
46 | Oc1ccc(Cl)cc1CNc1ccc(Br)cn1 | inconclusive: 35.5 µM [activator, single point]
47 | Cc1cc(Br)ccc1SCC(=O)OC/C(O)=C(\C#N)c1nc2ccccc2[nH]1 | inactive
48 | CCn1c(=S)[nH]c2cc(Cl)ccc21 | inactive
49 | O=[N+]([O-])c1cc(Cl)cc2c1nc(NCCO)c1ccccc12 | inconclusive: 35.5 µM [activator, single point]
50 | CCOc1cc(/C=C2\COc3ccccc3C2=O)cc(Br)c1OCC(=O)N(C)C | inactive
51 | O=C(c1ccc(Cl)cc1[N+](=O)[O-])N1CCOCC1 | inconclusive: 22.4 µM [activator, single point]
52 | CCC(c1nnnn1C1CCCCC1)N(Cc1ccco1)Cc1cc2ccc(OC)cc2[nH]c1=O (configuration not stated) | inconclusive: 12.6 µM [activator, single point]

Look-ups from the results shown.
In Potency, `COc1ccccc1OCC(=O)N/N=C/C=C/c1ccc([N+](=O)[O-])o1` shows inconclusive: 35.5 µM [activator, single point]
In Potency, `O=C(c1ccc(Cl)cc1[N+](=O)[O-])N1CCOCC1` shows inconclusive: 22.4 µM [activator, single point]
In Potency, `O=[N+]([O-])c1ccc(N2N=C(c3ccco3)CC2c2ccccc2)cc1` (configuration not stated) shows inactive
In Potency, `CC1CCN(c2nc3ccccn3c(=O)c2C=O)CC1` shows inconclusive: 28.2 µM [activator, single point]
In Potency, `Cn1ccc2cc3c(cc21)CCN3C(=O)Nc1cccnc1` shows inconclusive: 20.6 µM [activator, single point]

The list continues.

Row | SMILES | Potency
53 | O=C(Nc1ccc(OCC(F)(F)C(F)F)cc1)c1ccncc1 | inconclusive: 11.2 µM [activator, single point]
54 | COc1ccc(Oc2c(O)c3ccccc3n(C)c2=O)cc1 | inconclusive: 12.6 µM [activator, partial curve]
55 | CC1CCc2c(sc3nc(CN4CCOCC4)nc(NS(=O)(=O)c4cccc([N+](=O)[O-])c4)c23)C1 (configuration not stated) | inconclusive: 5.62 µM [activator, single point]
56 | Oc1[nH]c2ccccc2c1N=NC(=S)NCCc1ccccc1 | inconclusive: 20 µM [activator, single point]
57 | CCOC(=O)CNC(=O)CSc1nnc(C)c(=O)[nH]1 | inconclusive: 35.5 µM [activator, single point]
58 | O=C(Nc1ccccc1Br)c1ccccc1-c1ccccc1 | inconclusive: 12.6 µM [activator, partial curve]
59 | CCOc1ccc(NCc2nc3ccccc3n2CCOc2ccccc2)cc1 | inconclusive: 35.5 µM [activator, single point]
60 | CCc1ccc(-c2cc(C)no2)cc1S(=O)(=O)N1CC(=O)Nc2ccccc21 | inactive
61 | O=C(Nc1ccc(F)cc1)c1ccccc1Oc1ccc(C(F)(F)F)cc1[N+](=O)[O-] | inconclusive: 31.6 µM [activator, single point]
62 | O=C(O)CCCNc1ccc(S(=O)(=O)N2CCCCC2)cc1 | inconclusive: 20 µM [activator, single point]
63 | CCn1c2ccccc2c2nnc(SCc3ccc(C(=O)OC)o3)nc21 | inactive
64 | O=C(NCc1cc(C(F)(F)F)cc(C(F)(F)F)c1)C1CC(c2ccccc2[N+](=O)[O-])=NO1 (configuration not stated) | inactive
65 | Cc1ccc(Oc2nc3ccccn3c(=O)c2/C=C(\C#N)C(=O)NC2CCS(=O)(=O)C2)cc1 (configuration not stated) | inactive
66 | CC(=O)c1cccc(Nc2nc(-c3sc(C)nc3C)cs2)c1 | inactive
67 | O=c1oc(-c2ccc([N+](=O)[O-])cc2)nc2ccc(O)cc12 | inconclusive: 14.1 µM [activator, single point]
68 | Cc1cccc(Oc2c(C=O)c3ccccc3n2C)c1 | inactive
69 | CC(C)(C)c1cc(CP(=O)(c2ccccc2)c2ccccc2)cc(C(C)(C)C)c1O | inactive
70 | Nc1c(Cl)cc(C2=NCCn3nc4cc(C(F)(F)F)ccc4c32)cc1Cl | active: 12.6 µM
71 | O=C(CC(=O)NCc1ccc(Cl)cc1)NCc1ccccc1 | inconclusive: 6.31 µM [activator, single point]
72 | O=[N+]([O-])c1cc(Cl)c2cccnc2c1O | inconclusive: 1.26 µM [activator, full curve, poor fit]
73 | CCn1cc(C(=O)OCc2cccc(Br)c2)c(=O)c2ccc(C)nc21 | inconclusive: 12.6 µM [activator, partial curve]
74 | Cc1cc(N)c2ccccc2[n+]1CCCCCCCCCC[n+]1c(C)cc(N)c2ccccc21 | active: 2.59 µM
75 | CC1(C)N([O-])C(c2cccs2)=C[N+]1=O | inactive
76 | Cc1nnsc1Sc1ccccc1C(=O)O | inconclusive: 15.8 µM [activator, single point]
77 | Nc1c2c(nc3ccccc13)CCCC2O (configuration not stated) | inconclusive: 7.31 µM [activator, partial curve]
